For at least one entry, the source does not settle the construct or the ends of the probe. For part of these data: A negative result means that nothing was seen under these conditions. For part of these data: The comparison behind a weaker result is the experiment's own reference, which may not be listed here. For part of these data: Results from cells or extracts need not show a direct contact.
Tests used:
[1] = molecular target: DMP1 endogenous (NIH-3T3 and CTLL extracts) (Mus musculus) (UniProt Q8CE22); test: competition with a labelled probe; settings: protein in an extract
[2] = tested on: GST-Ets2 (contains complete Ets2 DNA-binding domain); test: EMSA; settings: purified recombinant protein, protein details: GST, label: 32P
DMP1 (Mus musculus) [3] = molecular target: DMP1 (Mus musculus) (UniProt Q8CE22); test: EMSA; settings: protein in a lysate after overexpression, protein details: baculovirus Sf9 lysate, label: 32P
[4] = tested on: GST-Ets2 (contains complete Ets2 DNA-binding domain); test: competition with a labelled probe; settings: purified recombinant protein, protein details: GST, variant of BS1
DMP1 (Mus musculus) [5] = molecular target: DMP1 (Mus musculus) (UniProt Q8CE22); test: competition with a labelled probe; settings: protein in a lysate after overexpression, protein details: baculovirus Sf9 lysate
[6] = molecular target: T1, DMP1 expressed in 293T cells (Mus musculus) (UniProt Q8CE22); test: activity in cells; settings: 7x M3 reporter, no transactivation; protein in cells; variant of BS1
T1 sequence: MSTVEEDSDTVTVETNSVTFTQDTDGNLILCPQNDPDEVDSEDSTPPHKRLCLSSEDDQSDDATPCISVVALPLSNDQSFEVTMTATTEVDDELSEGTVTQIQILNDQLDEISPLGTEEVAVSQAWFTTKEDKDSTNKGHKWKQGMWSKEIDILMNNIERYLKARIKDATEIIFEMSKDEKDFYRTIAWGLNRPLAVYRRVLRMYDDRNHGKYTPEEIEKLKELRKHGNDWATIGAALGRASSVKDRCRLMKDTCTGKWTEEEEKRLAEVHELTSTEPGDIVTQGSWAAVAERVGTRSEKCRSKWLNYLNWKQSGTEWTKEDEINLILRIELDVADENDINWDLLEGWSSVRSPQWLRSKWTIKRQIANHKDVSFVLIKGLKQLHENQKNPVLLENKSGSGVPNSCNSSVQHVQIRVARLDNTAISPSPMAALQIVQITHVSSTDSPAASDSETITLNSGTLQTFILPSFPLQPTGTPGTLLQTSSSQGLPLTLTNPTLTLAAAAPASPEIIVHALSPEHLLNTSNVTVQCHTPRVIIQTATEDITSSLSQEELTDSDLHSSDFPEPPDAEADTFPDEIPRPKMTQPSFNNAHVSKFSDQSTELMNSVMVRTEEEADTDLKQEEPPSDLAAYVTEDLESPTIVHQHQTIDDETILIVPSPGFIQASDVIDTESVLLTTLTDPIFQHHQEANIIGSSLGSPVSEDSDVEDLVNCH

By UniProt entry, the sequences of proteins in these tests, tags left out. Where a name states a change or a piece, a line headed by the entry shows the natural chain unless it says otherwise.
UniProt Q8CE22: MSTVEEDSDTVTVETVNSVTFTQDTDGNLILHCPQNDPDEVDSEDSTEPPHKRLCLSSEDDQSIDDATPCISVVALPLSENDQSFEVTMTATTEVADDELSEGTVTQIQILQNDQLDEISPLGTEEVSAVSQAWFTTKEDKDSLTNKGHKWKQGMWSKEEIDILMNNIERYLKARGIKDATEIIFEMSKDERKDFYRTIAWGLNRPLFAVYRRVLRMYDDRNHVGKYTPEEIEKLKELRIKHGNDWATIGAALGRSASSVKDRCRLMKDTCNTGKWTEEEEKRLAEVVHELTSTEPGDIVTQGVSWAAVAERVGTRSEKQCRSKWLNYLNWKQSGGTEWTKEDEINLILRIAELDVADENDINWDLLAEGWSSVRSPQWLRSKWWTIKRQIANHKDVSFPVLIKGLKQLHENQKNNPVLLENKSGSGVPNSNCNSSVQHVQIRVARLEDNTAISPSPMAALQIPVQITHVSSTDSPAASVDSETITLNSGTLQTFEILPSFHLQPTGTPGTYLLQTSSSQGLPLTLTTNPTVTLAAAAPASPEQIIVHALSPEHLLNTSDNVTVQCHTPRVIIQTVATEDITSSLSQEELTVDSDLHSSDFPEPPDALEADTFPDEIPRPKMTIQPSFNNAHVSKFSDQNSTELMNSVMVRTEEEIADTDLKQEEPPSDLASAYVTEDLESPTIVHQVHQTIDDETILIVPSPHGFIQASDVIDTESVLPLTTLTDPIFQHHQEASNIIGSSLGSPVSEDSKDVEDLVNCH

DMP1 M4 (Mus musculus) = DMP1 M4 (Mus musculus) (UniProt Q8CE22); test: EMSA; settings: protein in a lysate after overexpression; protein details: Flag; label: 32P
DMP1 M10 (Mus musculus) = DMP1 M10 (Mus musculus) (UniProt Q8CE22); test: EMSA; settings: protein in a lysate after overexpression; protein details: Flag; label: 32P
DMP1 M2 (Mus musculus) = DMP1 M2 (Mus musculus) (UniProt Q8CE22); test: EMSA; settings: protein in a lysate after overexpression; protein details: Flag; label: 32P
DMP1 M6 (Mus musculus) = DMP1 M6 (Mus musculus) (UniProt Q8CE22); test: EMSA; settings: protein in a lysate after overexpression; protein details: Flag; label: 32P
[7] = molecular target: DMP1 wild type (Flag) (Mus musculus) (UniProt Q8CE22); test: EMSA; settings: NIH-3T3 transfection lysate; protein in a lysate after overexpression; protein details: Flag; label: 32P
DMP1 M9 (Mus musculus) = DMP1 M9 (Mus musculus) (UniProt Q8CE22); test: EMSA; settings: protein in a lysate after overexpression; protein details: Flag; label: 32P
DMP1 M3 (Mus musculus) = DMP1 M3 (Mus musculus) (UniProt Q8CE22); test: EMSA; settings: protein in a lysate after overexpression; protein details: Flag; label: 32P
DMP1 M8 (Mus musculus) = DMP1 M8 (Mus musculus) (UniProt Q8CE22); test: EMSA; settings: protein in a lysate after overexpression; protein details: Flag; label: 32P
DMP1 M1 (Mus musculus) = DMP1 M1 (Mus musculus) (UniProt Q8CE22); test: EMSA; settings: protein in a lysate after overexpression; protein details: Flag; label: 32P
DMP1 M7 (Mus musculus) = DMP1 M7 (Mus musculus) (UniProt Q8CE22); test: EMSA; settings: protein in a lysate after overexpression; protein details: Flag; label: 32P
DMP1 M5 (Mus musculus) = DMP1 M5 (Mus musculus) (UniProt Q8CE22); test: EMSA; settings: protein in a lysate after overexpression; protein details: Flag; label: 32P
[8] = molecular target: DMP1 endogenous (NIH-3T3 and CTLL extracts) (Mus musculus) (UniProt Q8CE22); test: EMSA; settings: A-complex supershifted/depleted by DMP1 antisera; protein in an extract; label: 32P
[9] = molecular target: DMP1 (bacterial, His-tagged polypeptide) (Mus musculus) (UniProt Q8CE22); test: SELEX; settings: 5' CCC preference less pronounced; purified recombinant protein; protein details: His; only the motif is given
[10] = does not compete BS1 probe, variant of BS1

## AATTGACCCGGATGTAGGTACGC (double strand) [BS1]
[1]; BS1 competes A-complex, label: 32P
  binding result: binds
[2]
  binding result: binds
DMP1 (Mus musculus) [3]; Sf9 lysate, poly(dI-dC), 1.5 mM MgCl2, 4 C, BS1 competes better than BS2
  binding result: binds

## AATTGACCCGGAAGTAGGTACGC (double strand) [M3 oligo (Ets-specific)]
[4]; competes BS1 probe
  binding result: binds
DMP1 (Mus musculus) [5]; does not compete BS1 or BS2 probes, variant of BS1
  binding result: no binding
[1]; M3 does not compete A-complex, variant of BS1
  binding result: no binding
[6]
  activity on this sequence: not active

## AATTGACCAGGATGTAGGTACGC (double strand) [M4 oligo]
[4]; high concentrations of M4 compete for BS1 binding
  binding result: binds more weakly
DMP1 (Mus musculus) [5]; competes at high concentrations, variant of BS1
  binding result: binds more weakly

## AATTGATTTGGATGTAGGTACGC (double strand) [M2 oligo]
DMP1 (Mus musculus) [5]; [10]
  binding result: no binding

## AATTGACCCGTATGTAGGTACGC (double strand) [BS2]
DMP1 M4 (Mus musculus)
  binding result: no binding
[2]; not detectable with labeled BS2, no competition of BS1
  binding result: no binding
DMP1 M10 (Mus musculus)
  binding result: binds
DMP1 M2 (Mus musculus)
  binding result: binds
DMP1 M6 (Mus musculus)
  binding result: no binding
[7]
  binding result: binds
DMP1 M9 (Mus musculus)
  binding result: no binding
DMP1 M3 (Mus musculus)
  binding result: binds
DMP1 M8 (Mus musculus)
  binding result: no binding
DMP1 (Mus musculus) [3]
  binding result: binds
DMP1 M1 (Mus musculus)
  binding result: binds
DMP1 M7 (Mus musculus)
  binding result: no binding
DMP1 M5 (Mus musculus)
  binding result: binds
[8]
  binding result: binds

## AATTGACCCTGCGGTAGGTACGC (double strand) [M1 oligo]
DMP1 (Mus musculus) [5]; [10]
  binding result: no binding

## GGATG (double strand) [GGATG-containing selected oligos]
[9]
  selection result: selected

## AATTGGGACCCCGGATGCGGCAG (double strand) [ARF DMP1/Ets site oligo 23 bp]
DMP1 (Mus musculus) [5]; completely inhibits binding to 281 bp fragment, 200-fold excess
  binding result: binds

— patent US20030028002A1, “Cyclin D binding factor, and uses thereof” (published 2003)
